# The other results are listed elsewhere or left out.
# Assays:
# Assay in all cases: glycan array binding signal (z-score within array); higher = stronger binding
# Details in all cases: glycan notation: IUPAC condensed, linker removed
# [1] = target: Neu5Ac(a2-3)Gal(b1-4)GlcNAc(b1-3)[Neu5Ac(a2-3)Gal(b1-4)GlcNAc(b1-6)]GalNAc
# Summary of the method: (§1)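 The binding signal is a Z-score computed within each array. Data were drawn from 3228 arrays in the Consortium for Functional Glycomics database, restricted to those with a known protein sequence. Scores were averaged over arrays of the same protein sequence at different concentrations or buffers, and over linkers, and negative values can be taken as non-binding.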
# [2] = target: Neu5Ac(a2-3)Gal(b1-4)GlcNAc(b1-6)GalNAc
# Summary of the method: as §1
# [3] = target: Neu5Ac(a2-3)Gal(b1-4)GlcNAc(b1-6)[Gal(b1-3)]GalNAc
# Summary of the method: as §1
# [4] = target: Neu5Ac(a2-3)Gal(b1-4)GlcNAc(b1-6)[Neu5Ac(a2-3)Gal(b1-3)]GalNAc
# Summary of the method: as §1
# [5] = target: Neu5Ac(a2-3)Gal(b1-4)GlcNAc6S
# Summary of the method: as §1
# [6] = target: Neu5Ac(a2-3)Gal(b1-4)[Fuc(a1-3)]GlcNAc
# Summary of the method: as §1
# [7] = target: Neu5Ac(a2-3)Gal(b1-4)[Fuc(a1-3)]GlcNAc(b1-2)Man
# Summary of the method: as §1
# [8] = target: Neu5Ac(a2-3)Gal(b1-4)[Fuc(a1-3)]GlcNAc(b1-3)Gal
# Summary of the method: as §1
# [9] = target: Neu5Ac(a2-3)Gal(b1-4)[Fuc(a1-3)]GlcNAc(b1-3)Gal(b1-4)GlcNAc
# Summary of the method: as §1
# [10] = target: Neu5Ac(a2-3)Gal(b1-4)[Fuc(a1-3)]GlcNAc(b1-3)Gal(b1-4)[Fuc(a1-3)]GlcNAc(b1-3)Gal(b1-4)[Fuc(a1-3)]GlcNAc
# Summary of the method: as §1
# [11] = target: Neu5Ac(a2-3)Gal(b1-4)[Fuc(a1-3)]GlcNAc(b1-3)GalNAc
# Summary of the method: as §1
# [12] = target: Neu5Ac(a2-3)Gal(b1-4)[Fuc(a1-3)]GlcNAc(b1-6)[Gal(b1-3)]GalNAc
# Summary of the method: as §1
# [13] = target: Neu5Ac(a2-3)Gal(b1-4)[Fuc(a1-3)]GlcNAc(b1-6)[Neu5Ac(a2-3)Gal(b1-3)]GalNAc
# Summary of the method: as §1
# [14] = target: Neu5Ac(a2-3)Gal(b1-4)[Fuc(a1-3)]GlcNAc6S
# Summary of the method: as §1
# [15] = target: Neu5Ac(a2-3)Gal6S(b1-4)GlcNAc
# Summary of the method: as §1
# [16] = target: Neu5Ac(a2-3)Gal6S(b1-4)[Fuc(a1-3)]GlcNAc
# Summary of the method: as §1
# [17] = target: Neu5Ac(a2-3)GalNAc
# Summary of the method: as §1
# [18] = target: Neu5Ac(a2-3)GalNAc(b1-4)GlcNAc
# Summary of the method: as §1
# [19] = target: Neu5Ac(a2-3)[GalNAc(b1-4)]Gal(b1-4)Glc
# Summary of the method: as §1
# [20] = target: Neu5Ac(a2-3)[GalNAc(b1-4)]Gal(b1-4)GlcNAc
# Summary of the method: as §1
# [21] = target: Neu5Ac(a2-3)[GalNAc(b1-4)]Gal(b1-4)GlcNAc(b1-3)GalNAc
# Summary of the method: as §1
# [22] = target: Neu5Ac(a2-3)[Neu5Ac(a2-6)]GalNAc
# Summary of the method: as §1
# [23] = target: Neu5Ac(a2-6)Gal
# Summary of the method: as §1
# [24] = target: Neu5Ac(a2-6)Gal(b1-3)GlcNAc(b1-3)[Gal(b1-4)GlcNAc(b1-6)]Gal(b1-4)Glc
# Summary of the method: as §1
# [25] = target: Neu5Ac(a2-6)Gal(b1-4)Glc
# Summary of the method: as §1
# [26] = target: Neu5Ac(a2-6)Gal(b1-4)GlcNAc
# Summary of the method: as §1
# [27] = target: Neu5Ac(a2-6)Gal(b1-4)GlcNAc(b1-2)Man
# Summary of the method: as §1
# [28] = target: Neu5Ac(a2-6)Gal(b1-4)GlcNAc(b1-2)Man(a1-3)Man(b1-4)GlcNAc(b1-4)GlcNAc
# Summary of the method: as §1
# [29] = target: Neu5Ac(a2-6)Gal(b1-4)GlcNAc(b1-2)Man(a1-3)[Gal(b1-4)GlcNAc(b1-2)Man(a1-6)]Man(b1-4)GlcNAc(b1-4)GlcNAc
# Summary of the method: as §1
# [30] = target: Neu5Ac(a2-6)Gal(b1-4)GlcNAc(b1-2)Man(a1-3)[GlcNAc(b1-2)Man(a1-6)]Man(b1-4)GlcNAc(b1-4)GlcNAc
# Summary of the method: as §1
# [31] = target: Neu5Ac(a2-6)Gal(b1-4)GlcNAc(b1-2)Man(a1-3)[GlcNAc(b1-4)][Neu5Ac(a2-6)Gal(b1-4)GlcNAc(b1-2)Man(a1-6)]Man(b1-4)GlcNAc(b1-4)GlcNAc
# Summary of the method: as §1
# [32] = target: Neu5Ac(a2-6)Gal(b1-4)GlcNAc(b1-2)Man(a1-3)[Man(a1-6)]Man(b1-4)GlcNAc(b1-4)GlcNAc
# Summary of the method: as §1
# [33] = target: Neu5Ac(a2-6)Gal(b1-4)GlcNAc(b1-2)Man(a1-3)[Neu5Ac(a2-3)Gal(b1-4)GlcNAc(b1-2)Man(a1-6)]Man(b1-4)GlcNAc(b1-4)GlcNAc
# Summary of the method: as §1
# [34] = target: Neu5Ac(a2-6)Gal(b1-4)GlcNAc(b1-2)Man(a1-3)[Neu5Ac(a2-6)Gal(b1-4)GlcNAc(b1-2)Man(a1-6)]Man(b1-4)GlcNAc(b1-4)GlcNAc
# Summary of the method: as §1
# [35] = target: Neu5Ac(a2-6)Gal(b1-4)GlcNAc(b1-2)Man(a1-3)[Neu5Ac(a2-6)Gal(b1-4)GlcNAc(b1-2)Man(a1-6)]Man(b1-4)GlcNAc(b1-4)[Fuc(a1-6)]GlcNAc
# Summary of the method: as §1
# [36] = target: Neu5Ac(a2-6)Gal(b1-4)GlcNAc(b1-2)Man(a1-6)Man(b1-4)GlcNAc(b1-4)GlcNAc
# Summary of the method: as §1
# [37] = target: Neu5Ac(a2-6)Gal(b1-4)GlcNAc(b1-2)Man(a1-6)[Gal(b1-4)GlcNAc(b1-2)Man(a1-3)]Man(b1-4)GlcNAc(b1-4)GlcNAc
# Summary of the method: as §1
# [38] = target: Neu5Ac(a2-6)Gal(b1-4)GlcNAc(b1-2)Man(a1-6)[GlcNAc(b1-2)Man(a1-3)]Man(b1-4)GlcNAc(b1-4)GlcNAc
# Summary of the method: as §1
# [39] = target: Neu5Ac(a2-6)Gal(b1-4)GlcNAc(b1-2)Man(a1-6)[Man(a1-3)]Man(b1-4)GlcNAc(b1-4)GlcNAc
# Summary of the method: as §1
# [40] = target: Neu5Ac(a2-6)Gal(b1-4)GlcNAc(b1-2)[Neu5Ac(a2-6)Gal(b1-4)GlcNAc(b1-4)]Man(a1-3)[GlcNAc(b1-4)][Neu5Ac(a2-6)Gal(b1-4)GlcNAc(b1-2)[Neu5Ac(a2-6)Gal(b1-4)GlcNAc(b1-6)]Man(a1-6)]Man(b1-4)GlcNAc(b1-4)GlcNAc
# Summary of the method: as §1
# [41] = target: Neu5Ac(a2-6)Gal(b1-4)GlcNAc(b1-2)[Neu5Ac(a2-6)Gal(b1-4)GlcNAc(b1-4)]Man(a1-3)[GlcNAc(b1-4)][Neu5Ac(a2-6)Gal(b1-4)GlcNAc(b1-4)Man(a1-6)]Man(b1-4)GlcNAc(b1-4)GlcNAc
# Summary of the method: as §1
# [42] = target: Neu5Ac(a2-6)Gal(b1-4)GlcNAc(b1-2)[Neu5Ac(a2-6)Gal(b1-4)GlcNAc(b1-6)]Man(a1-6)[Neu5Ac(a2-6)Gal(b1-4)GlcNAc(b1-2)Man(a1-3)][GlcNAc(b1-4)]Man(b1-4)GlcNAc(b1-4)GlcNAc
# Summary of the method: as §1
# [43] = target: Neu5Ac(a2-6)Gal(b1-4)GlcNAc(b1-3)Gal(b1-3)GlcNAc
# Summary of the method: as §1
# [44] = target: Neu5Ac(a2-6)Gal(b1-4)GlcNAc(b1-3)Gal(b1-4)GlcNAc
# Summary of the method: as §1
# [45] = target: Neu5Ac(a2-6)Gal(b1-4)GlcNAc(b1-3)Gal(b1-4)GlcNAc(b1-2)Man(a1-3)[Neu5Ac(a2-6)Gal(b1-4)GlcNAc(b1-3)Gal(b1-4)GlcNAc(b1-2)Man(a1-6)]GalNAc
# Summary of the method: as §1
binder,measurement,setting,value
"DC-Sign-R (Homo sapiens), Q9H2X3 (protein) MSDSKEPRVQQLGLLEEDPTTSGIRLFPRDFQFQQIHGHKSSTGCLGHGALVLQLLSFMLLAGVLVAILVQVSKVPSSLSQEQSEQDAIYQNLTQLKAAVGELSEKSKLQEIYQELTQLKAAVGELPEKSKLQEIYQELTRLKAAVGELPEKSKLQEIYQELTRLKAAVGELPEKSKLQEIYQELTRLKAAVGELPEKSKLQEIYQELTELKAAVGELPEKSKLQEIYQELTQLKAAVGELPDQSKQQQIYQELTDLKTAFERLCRHCPKDWTFFQGNCYFMSNSQRNWHDSVTACQEVRAQLVVIKTAEEQNFLQLQTSRSNRFSWMGLSDLNQEGTWQWVDGSPLSPSFQRYWNSGEPNNSGNEDCAEFSGSGWNDNRCDVDNYWICKKPAACFRDE",glycan array binding signal (z-score),[1],0.332
same,glycan array binding signal (z-score),[2],-0.293
same,glycan array binding signal (z-score),[3],-0.73
same,glycan array binding signal (z-score),[4],0.509
same,glycan array binding signal (z-score),[5],-0.795
same,glycan array binding signal (z-score),[6],-0.357
same,glycan array binding signal (z-score),[7],0.991
same,glycan array binding signal (z-score),[8],1.15
same,glycan array binding signal (z-score),[9],-0.749
same,glycan array binding signal (z-score),[10],-0.219
same,glycan array binding signal (z-score),[11],1.33
same,glycan array binding signal (z-score),[12],-0.608
same,glycan array binding signal (z-score),[13],0.361
same,glycan array binding signal (z-score),[14],-0.531
same,glycan array binding signal (z-score),[15],-0.255
same,glycan array binding signal (z-score),[16],-0.433
same,glycan array binding signal (z-score),[17],-0.639
same,glycan array binding signal (z-score),[18],0.032
same,glycan array binding signal (z-score),[19],0.865
same,glycan array binding signal (z-score),[20],0.02
same,glycan array binding signal (z-score),[21],0.434
same,glycan array binding signal (z-score),[22],0.964
same,glycan array binding signal (z-score),[23],-0.222
same,glycan array binding signal (z-score),[24],-0.84
same,glycan array binding signal (z-score),[25],-0.112
same,glycan array binding signal (z-score),[26],0.316
same,glycan array binding signal (z-score),[27],-0.243
same,glycan array binding signal (z-score),[28],-0.7
same,glycan array binding signal (z-score),[29],0.079
same,glycan array binding signal (z-score),[30],-0.808
same,glycan array binding signal (z-score),[31],0.035
same,glycan array binding signal (z-score),[32],-0.407
same,glycan array binding signal (z-score),[33],0.166
same,glycan array binding signal (z-score),[34],-0.099
same,glycan array binding signal (z-score),[35],-0.156
same,glycan array binding signal (z-score),[36],-0.883
same,glycan array binding signal (z-score),[37],-0.77
same,glycan array binding signal (z-score),[38],-0.522
same,glycan array binding signal (z-score),[39],-0.78
same,glycan array binding signal (z-score),[40],3.11
same,glycan array binding signal (z-score),[41],2.25
same,glycan array binding signal (z-score),[42],-0.177
same,glycan array binding signal (z-score),[43],-0.679
same,glycan array binding signal (z-score),[44],-0.464
same,glycan array binding signal (z-score),[45],4.44

# In a second layout: results already given
binder | measurement | setting | value
DC-Sign-R (Homo sapiens), Q9H2X3 (protein) MSDSKEPRVQQLGLLEEDPTTSGIRLFPRDFQFQQIHGHKSSTGCLGHGALVLQLLSFMLLAGVLVAILVQVSKVPSSLSQEQSEQDAIYQNLTQLKAAVGELSEKSKLQEIYQELTQLKAAVGELPEKSKLQEIYQELTRLKAAVGELPEKSKLQEIYQELTRLKAAVGELPEKSKLQEIYQELTRLKAAVGELPEKSKLQEIYQELTELKAAVGELPEKSKLQEIYQELTQLKAAVGELPDQSKQQQIYQELTDLKTAFERLCRHCPKDWTFFQGNCYFMSNSQRNWHDSVTACQEVRAQLVVIKTAEEQNFLQLQTSRSNRFSWMGLSDLNQEGTWQWVDGSPLSPSFQRYWNSGEPNNSGNEDCAEFSGSGWNDNRCDVDNYWICKKPAACFRDE | glycan array binding signal (z-score) | [2] | -0.293
same | glycan array binding signal (z-score) | [11] | 1.33
same | glycan array binding signal (z-score) | [19] | 0.865
same | glycan array binding signal (z-score) | [23] | -0.222
same | glycan array binding signal (z-score) | [32] | -0.407
same | glycan array binding signal (z-score) | [33] | 0.166
same | glycan array binding signal (z-score) | [39] | -0.78
same | glycan array binding signal (z-score) | [40] | 3.11
same | glycan array binding signal (z-score) | [41] | 2.25
same | glycan array binding signal (z-score) | [43] | -0.679
same | glycan array binding signal (z-score) | [44] | -0.464
